Reference: PubChem BioAssay AID2718 (Broad Institute, 2010)
The whole screen tested about 320,000 compounds, of which about 480 (0.15%) were called active. This list was built around the results that the source calls inconclusive (neither active nor inactive); the mix of calls is not that of the screen. Cut-off read from the data, not from the text of the source: active = inhibition above about 26% (passing the limit was not always enough); inconclusive = no clear call, values can overlap the other calls.

Protein sequences, listed by entry. Tags and fused reporters are not part of them.
UniProt O15379, whole entry, looked up: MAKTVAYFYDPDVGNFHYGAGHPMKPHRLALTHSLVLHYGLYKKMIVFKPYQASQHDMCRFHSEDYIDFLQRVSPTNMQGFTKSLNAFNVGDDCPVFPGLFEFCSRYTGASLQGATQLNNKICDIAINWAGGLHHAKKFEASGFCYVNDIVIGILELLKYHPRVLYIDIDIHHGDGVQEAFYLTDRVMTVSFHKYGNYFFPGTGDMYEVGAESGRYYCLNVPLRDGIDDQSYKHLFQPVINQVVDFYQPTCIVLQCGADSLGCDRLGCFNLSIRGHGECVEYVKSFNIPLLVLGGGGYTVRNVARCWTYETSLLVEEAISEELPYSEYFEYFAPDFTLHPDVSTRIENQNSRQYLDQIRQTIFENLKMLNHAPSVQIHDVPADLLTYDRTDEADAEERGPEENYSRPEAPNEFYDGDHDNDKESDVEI

biological target: Histone deacetylase 3 (Homo sapiens) (UniProt O15379); test: HDAC3 deacetylase inhibitors, primary screen, biochemical, fluorescence, cell-free homogeneous (AID 2718); conditions: recombinant HDAC3, fluorogenic peptide/trypsin coupled, at 8.3 µM, active compounds read high

Row | Compound | inhibition
1 | CCN1C(=O)[C@H]2[C@@H](c3ccc(SC4CCCCC4)cc3)N[C@@](CC(C)C)(C(=O)OC)[C@H]2C1=O | inconclusive: 14%
2 | O=C(CSc1nnc(CNC(=O)c2ccccc2F)o1)NC1CCCCC1 | inconclusive: 11.8%
3 | CC(C)(C)N1C(=O)[C@H]2[C@@H](c3ccc(Br)cc3)N3C(=O)N(c4ccccc4)C(=O)[C@@]3(C)[C@H]2C1=O | inconclusive: 14.7%
4 | CC(C)(C)c1cn(-c2ccccc2)c(=S)[nH]1 | inactive: -7.08%
5 | O=C(Nc1cccc(C(=O)O)c1)/C(=C\c1ccccc1)NC(=O)c1cccc2ccccc12 | inconclusive: 18.2%
6 | CNC(=O)c1cc(S(=O)(=O)NCc2ccncc2)ccc1OC | inconclusive: 11.1%
7 | CCNc1nc2c(c(=O)n(C)c(=O)n2C)n1CCCc1ccccc1 | inactive: -6.72%
8 | COc1cc(N=c2ssnc2Cl)cc(OC)c1 | inconclusive: 33.6%
9 | CS(=O)(=O)c1ccc(Cl)c(NC(=O)CCc2ccccc2)c1 | inconclusive: 16.5%
10 | C=CCOc1ccccc1CN1CCC(n2nccc2NC(=O)c2ccccc2)CC1 | inconclusive: 19.7%
11 | Cc1ccc(COc2ccsc2-c2n[nH]c(=S)n2C)cc1 | inactive: -3.45%
12 | Cc1cc(S(=O)(=O)NC2CCCCC2)c(C)s1 | inconclusive: 23.3%
13 | CCCn1c(SCC(=O)c2cc(C)n(C3CC3)c2C)n[nH]c1=O | inconclusive: 55.2%
14 | COc1ccc(C(=O)NCc2nnc(SCC(=O)c3ccccc3)o2)cc1 | inactive: -2.66%
15 | CN1C=CC=C/C1=C1\SC(=S)N(N)C1=O | inconclusive: 15.5%
16 | CSc1nc(=S)c2[nH]c(=S)[nH]c2[nH]1 | active: 36.5%
17 | C[N+]1(C)CCC(=C2c3ccccc3CC(=O)c3sccc32)CC1 | inconclusive: 15.9%
18 | COc1ccc(C(=O)c2ccccc2)c(OCC(=O)N(C)C)c1 | inconclusive: 9.19%
19 | CC1(C(=O)OCC(=O)NCc2ccc(Cl)cc2)CC1(Cl)Cl (stereo not drawn) | inconclusive: 9.88%
20 | COc1ccc(N=C2S/C(=C\c3ccc(C)o3)C(=O)N2CC(C)C)cc1 | inactive: 7.04%
21 | Cc1nc2ccc(NC(=O)Cc3ccc(Br)cc3)cc2s1 | inactive: 6.09%
22 | Cc1ccc(S(=O)(=O)/N=C2/NC(=O)/C(=C/c3ccccc3)S2)cc1 | inconclusive: 28.5%

Row | Compound | inhibition
23 | CCOC(=O)c1ccc(COC(=O)c2ccc3c(c2)-c2ccccc2C3=O)cc1 | inconclusive: 18.2%
24 | COc1ccc(C(=O)NC(=S)Nc2ccccc2N2CCCCC2)cc1[N+](=O)[O-] | inactive: 0.38%
25 | Cc1ccc(N2CC(C(=O)OCC(=O)c3ccc([N+](=O)[O-])cc3)CC2=O)cc1 (stereo not drawn) | inactive: -5.94%
26 | Cc1cc(C(=O)N2CCN(c3ncccn3)CC2)sc1-c1ccccc1 | inconclusive: 17.4%
27 | CC(C)(C)C(=O)/C(C#N)=C/c1ccc(O)cc1 | inconclusive: 20.4%
28 | O=C(Cn1cccc1C(=O)c1ccccc1)NCc1ccccc1Cl | inactive: 8.9%
29 | CCCC(=O)Nn1cnc2c(c1=O)C1(CCCCC1)Cc1ccccc1-2 | inconclusive: 22.1%
30 | COCCNS(=O)(=O)c1cccn1-c1ncc(C(F)(F)F)cc1Cl | inconclusive: 17.1%
31 | Nc1ccc(C(=O)Nc2ccc(OC(F)(F)C(F)F)c(NC(=O)c3ccc(N)cc3)c2)cc1 | inconclusive: 18.2%
32 | CCOC(=O)N1CCN(C(=O)c2ccccc2NC(C)=O)CC1 | inconclusive: 17.9%
33 | C[C@@H]1CCC(=O)N(CC[C@H](Oc2ccccc2)c2ccccc2)CC1 | inconclusive: 25.5%
34 | CCOC(=O)c1c(S(=O)(=O)NCC(=O)N2CCN(c3ccccc3OC)CC2)c(C)n(C)c1C | inconclusive: 18.8%
35 | O=C(CSc1cccc2cccnc12)Nc1cc(C(=O)O)cc(C(=O)O)c1 | inactive: -6.66%
36 | O=C(NCCS(=O)(=O)NCc1ccccc1Cl)c1ccccc1 | inactive: 1.35%
37 | CN1C(C(=O)Nc2ccc(F)cc2F)=CC(c2cccs2)=NS1(=O)=O | inactive: -0.421%
38 | CCCCn1c(=O)[nH]c(=O)c2c1nc(-c1cc(Cl)c(OC)c(OC)c1)n2C | inactive: -10.6%
39 | CCCOP(=O)(OCCC)C1(Nc2ccc(C)cc2)CCCCC1 | inactive: 12.3%
40 | COC(=O)[C@]1(CC(C)C)N[C@H](c2ccc(-c3ccc(OC)cc3)cc2)[C@@H]2C(=O)N(C)C(=O)[C@@H]21 | inconclusive: 12.9%
41 | O=C(OC(c1ccc(NS(=O)(=O)c2ccccc2)cc1)(C(F)(F)F)C(F)(F)F)c1ccccc1 | active: 33.6%
42 | COc1ccc(C2/C(=C(/O)c3ccccc3)C(=O)C(=O)N2c2ccccn2)cc1OC (stereo not drawn) | inconclusive: 23.1%
43 | C/C=C1\COC(C(=O)NCc2ccncc2)(C(F)(F)F)C=C1C=C1CCCCC1 (stereo not drawn) | inactive: 6.55%
44 | CC(C)c1ccc(NC(=O)c2cc([N+](=O)[O-])ccc2N2CCOCC2)cc1 | inconclusive: 21.3%

Row | Compound | inhibition
45 | Cc1ccc(S(=O)(=O)Nc2cc(C)c(O)c(S(=O)(=O)c3ccc(C)cc3)c2)cc1 | inconclusive: 24%
46 | O=C(CCNC(=O)C1CCN(S(=O)(=O)c2ccccc2)CC1)NCc1ccc(Cl)cc1Cl | inconclusive: 18.2%
47 | Cc1cc(N2CC(C(=O)Nc3nccs3)CC2=O)ccc1C(C)C (stereo not drawn) | inconclusive: 16.6%
48 | COc1ccccc1C(=O)O/N=C(\N)c1ccccc1Cl | inconclusive: 20%
49 | COc1cccc(N(CC(=O)N2CCCCCC2)S(C)(=O)=O)c1 | inactive: 15.8%
50 | COC(=O)C(C(=O)Nc1cccc(Cl)c1C)C1CCCC1 (stereo not drawn) | inconclusive: 18%
51 | COc1ccc(CNc2ncnc3c2[nH]c2ccccc23)cc1 | inactive: 2.91%
52 | O=C1CC(c2ccccc2)Cc2nc(NC3CC3)ncc21 (stereo not drawn) | inactive: 4.12%
53 | Cc1ccc2c(c1)N(C(=O)CCC(=O)NCc1cccnc1)CC(C)O2 (stereo not drawn) | inconclusive: 23%
54 | O=C(OCCN(C1=NS(=O)(=O)c2ccccc21)c1ccccc1Cl)c1ccc(Cl)cc1 | inconclusive: 23.7%
55 | CCCc1[nH]nc2c1C(c1ccc(OC(=O)c3ccco3)cc1)C(C#N)=C(N)O2 (stereo not drawn) | inconclusive: 34.1%
56 | CC(C)C(=O)Nc1ccc(-c2nc3ccccc3c(=O)o2)cc1 | active: 55.6%
57 | CC(C)Oc1ccc(N2CC(C(=O)NC3=NCCS3)CC2=O)cc1 (stereo not drawn) | inactive: 1.05%
58 | NNC(=O)c1csc(-c2cccc(C(F)(F)F)c2)n1 | inactive: 7.61%
59 | Cc1cccc(Nc2nc(OCC#N)nc(N(C)C)n2)c1 | inactive: -0.989%
60 | Cc1cc(=O)[nH]c(SCc2nc3ccc([N+](=O)[O-])cc3[nH]2)n1 | inconclusive: 24.8%
61 | COc1ccc(-c2nc3c(c(SCC(=O)N4CCOCC4)n2)COC(C)(C)C3)cc1 | inactive: -0.662%
62 | CC1(c2ccccc2Br)NC(=O)N(CC(=O)NC2CCCCC2)C1=O (stereo not drawn) | inactive: -1.36%
63 | O=c1c2c3c(sc2n2cnnc2n1Cc1ccccc1)CN(Cc1ccccc1)CC3 | inconclusive: 11.3%
64 | Cc1nnc(SCC(=O)c2ccc(Cl)cc2)n(N)c1=O | inconclusive: 18.9%
65 | Cc1nn(-c2cc(N3CCOCC3)ccc2[N+](=O)[O-])c(=O)c2ccccc12 | inconclusive: 22%
66 | CCOC(=O)N1CCN(C(=O)Nc2ccc(Cl)cc2Cl)CC1 | inconclusive: 10.3%

Reprinted at random: 3 entries already listed.
Row | Compound | inhibition
48 | COc1ccccc1C(=O)O/N=C(\N)c1ccccc1Cl | inconclusive: 20%
51 | COc1ccc(CNc2ncnc3c2[nH]c2ccccc23)cc1 | inactive: 2.91%
52 | O=C1CC(c2ccccc2)Cc2nc(NC3CC3)ncc21 (stereo not drawn) | inactive: 4.12%

Taken from above.
O=C(OCCN(C1=NS(=O)(=O)c2ccccc21)c1ccccc1Cl)c1ccc(Cl)cc1 | inhibition: inconclusive: 23.7%
Cc1ccc2c(c1)N(C(=O)CCC(=O)NCc1cccnc1)CC(C)O2 (stereo not drawn) | inhibition: inconclusive: 23%

The results go on.

Row | Compound | inhibition
67 | Nc1c2c(nc3ccn(Cc4ccccc4)c(=O)c13)CCC2 | inactive: -15.8%
68 | COc1cccc2c1C(=O)c1ccc3ccccc3c1C2=O | inactive: -11.4%
69 | COc1ccc(C2/C=C\CN(C(=O)Nc3ccc(C(F)(F)F)cc3)CC(=O)N2Cc2ccc(F)cc2)cc1 (stereo not drawn) | inconclusive: 26.7%
70 | Cc1[nH]c2ccccc2c1CCC(N)=O | inactive: 0.307%
71 | Cc1ccc(-n2nc3ccc(NC(=O)c4cccc([N+](=O)[O-])c4C)cc3n2)cc1 | inactive: 4.3%
72 | COc1cccc(-c2cc(C(F)(F)F)nc(N3CCOCC3)n2)c1 | inconclusive: 26.9%
73 | COC(=O)c1cccc(C(=O)N2CCC(CCC(=O)NCc3ccc(F)cc3)CC2)c1 | inconclusive: 17.9%
74 | OCC[C@@H]1C[C@H](O)[C@@H](O)[C@@]2(CCCc3ccccc3O2)O1 | inactive: 1.16%
75 | CCCCOc1ccc(-c2nc(=S)[nH][nH]2)cc1 | inconclusive: 23.7%
76 | COc1cc(-c2[nH]nc3c2C(c2ccoc2)C(C#N)=C(N)O3)cc(OC)c1OC (stereo not drawn) | inconclusive: 30.8%
77 | C[N+]1(CC(=O)OCCCc2ccccc2)CCCC1 | inactive: 5.32%
78 | CCOc1ccc(NC(=O)C2CC(=O)OC2c2ccccc2)cc1 (stereo not drawn) | inconclusive: 20.7%
79 | CC(C)COP(=O)(OCC(C)C)C(Nc1ccccc1)c1ccc2c(c1)OCO2 (stereo not drawn) | inconclusive: 17.3%
80 | CC(Sc1nnc(-c2ccccc2F)n1C1CC1)C(=O)NC(N)=O (stereo not drawn) | inconclusive: 29.3%
81 | COc1cc(/C=N/Nc2nc3ccccc3s2)ccc1OC(=O)c1ccccc1F | inconclusive: 17.9%
82 | CCOC(=O)CSc1nnc(NCC(=O)OC(C)C)c(=O)[nH]1 | inconclusive: 22.4%
83 | O=C(c1cccnc1)N1CCN(S(=O)(=O)c2ccc(F)cc2)CC1 | inconclusive: 27.7%
84 | COC1=C/C(=C/c2c(N)n3nc(CC(=O)N4CCCCC4)sc3nc2=O)C=CC1=O | inactive: 2.62%
85 | CS(=O)(=O)N1N=C(c2ccco2)CC1c1ccc(Cl)cc1Cl (stereo not drawn) | inconclusive: 10.1%
86 | Cc1ccc(C(=O)N/N=C\c2ccc(-c3ccc(Cl)cc3)o2)cn1 | inconclusive: 25.2%
87 | CCCCCNC(=O)C(C#N)c1nc2ccccc2nc1N1CCCC1 (stereo not drawn) | inactive: -2.71%
88 | COc1cc2[nH]c(=S)nc(NCC3CCCO3)c2cc1OC (stereo not drawn) | inconclusive: 28.1%
